# Values joined by “and” are separate entries in the source; they are usually repeats but may differ in a detail not shown here. Identical values can stand only once. Inconclusive means that the source gave no clear call. Such entries were picked first, then a sample of the others. For some assays here: A potency beside an inconclusive call is a rough fit, not a confirmed value. Active and inactive are the calls of the source. Rule for the calls: active = hit-call score of the fitted dose curve at least 0.9, where 1 is the maximum; inconclusive = response in the unintended direction; inactive = score below 0.9.
# Sequences of proteins named here, by UniProt entry; tags and fusion partners are left off. A change or cut given only in a name is not applied to a line headed by its entry.
# UniProt P19793: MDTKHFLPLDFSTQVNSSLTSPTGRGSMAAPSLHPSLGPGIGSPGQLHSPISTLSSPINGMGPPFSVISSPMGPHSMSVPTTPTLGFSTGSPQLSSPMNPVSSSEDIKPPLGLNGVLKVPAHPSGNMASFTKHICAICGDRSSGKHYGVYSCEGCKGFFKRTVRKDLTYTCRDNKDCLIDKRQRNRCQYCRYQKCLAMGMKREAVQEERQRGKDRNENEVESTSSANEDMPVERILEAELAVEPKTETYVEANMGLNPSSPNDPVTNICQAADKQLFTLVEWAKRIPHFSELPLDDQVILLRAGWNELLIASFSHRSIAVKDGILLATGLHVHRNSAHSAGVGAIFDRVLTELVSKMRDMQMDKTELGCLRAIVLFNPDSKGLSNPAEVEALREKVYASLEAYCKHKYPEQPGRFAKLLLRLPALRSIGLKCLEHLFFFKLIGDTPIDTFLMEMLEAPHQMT
# UniProt P04637, whole entry, looked up: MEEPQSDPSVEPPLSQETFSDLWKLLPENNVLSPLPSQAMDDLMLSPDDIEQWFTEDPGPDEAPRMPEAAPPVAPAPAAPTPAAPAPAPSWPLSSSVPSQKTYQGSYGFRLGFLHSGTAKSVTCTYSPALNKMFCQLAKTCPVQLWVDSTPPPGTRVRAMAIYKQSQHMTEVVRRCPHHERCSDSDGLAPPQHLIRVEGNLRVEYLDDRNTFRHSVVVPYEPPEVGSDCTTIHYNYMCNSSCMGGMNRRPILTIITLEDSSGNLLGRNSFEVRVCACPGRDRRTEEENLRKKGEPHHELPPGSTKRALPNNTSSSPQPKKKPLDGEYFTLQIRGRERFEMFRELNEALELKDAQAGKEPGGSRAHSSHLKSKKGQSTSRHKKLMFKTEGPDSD
# UniProt P37231: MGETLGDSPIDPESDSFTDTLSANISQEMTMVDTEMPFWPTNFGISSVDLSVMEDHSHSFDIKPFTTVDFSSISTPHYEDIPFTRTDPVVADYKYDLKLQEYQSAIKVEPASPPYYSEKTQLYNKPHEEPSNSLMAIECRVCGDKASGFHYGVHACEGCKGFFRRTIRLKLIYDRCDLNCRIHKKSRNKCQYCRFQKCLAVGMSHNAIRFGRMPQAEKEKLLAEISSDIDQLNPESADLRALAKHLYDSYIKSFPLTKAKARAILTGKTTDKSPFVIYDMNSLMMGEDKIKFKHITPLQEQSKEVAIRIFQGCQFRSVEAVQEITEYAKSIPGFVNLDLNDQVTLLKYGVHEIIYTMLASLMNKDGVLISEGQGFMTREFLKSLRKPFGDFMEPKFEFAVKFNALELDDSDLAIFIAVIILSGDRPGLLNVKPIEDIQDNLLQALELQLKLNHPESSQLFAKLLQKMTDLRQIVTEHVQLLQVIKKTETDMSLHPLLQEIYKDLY
# Legend:
# [1] = biological target: Retinoic acid receptor RXR-alpha (Homo sapiens) (UniProt P19793); assay: OT_NURR1_NURR1RXRa_0480: Odyssey Thera (OT) 8-hour HEK293T Protein Complementation Assay for Nurr1/retinoid X receptor (RXR) (AID 2283385)
# Procedure, shortened: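 HEK293T cells expressing Nurr1 and RXRα fused to reporter fragments (protein-fragment complementation); fluorescence measured 8 h after dosing. Gain of signal fitted relative to DMSO.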
# [2] = TOX21_p53_BLA_p3_viability: Viability Assessment in the Tox21 HCT-116 p53 Agonism Beta-lactamase Assay, Phase 3 (AID 2283593);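 note: cells exposed to compound for 16 h before reading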
# Procedure, shortened: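 Cellular ATP was quantified by CellTiter-Glo luminescence, read after 30 min at room temperature. Beforehand, HCT116 cells (4000/well) received compound 5 h post-seeding, 217-fold diluted from DMSO, then incubated 16 h at 37C.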
# [3] = TOX21_p53_BLA_p4_viability: Viability Assessment in the Tox21 HCT-116 p53 Agonism Beta-lactamase Assay, Phase 4 (AID 2283597);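 note: hits lower the luminescence signal meaning cytotoxicity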
# Procedure, shortened: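 HCT-116 p53-bla cells, 4000/well, dosed after 5 h attachment and incubated 16 h at 37 °C, 5% CO2. Viability from CellTiter-Glo ATP luminescence after 30 min at room temperature, taken after the beta-lactamase read; loss of signal indicates cytotoxicity.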
# [4] = biological target: Cellular tumor antigen p53 (Homo sapiens) (UniProt P04637); assay: TOX21_p53_BLA_p4_ratio: Tox21 HCT-116 p53 Agonism Beta-lactamase Assay, Ratio, Phase 4 (AID 2283601)
# Procedure, shortened: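 Signal is the blue/green (460nm/530nm) ratio of cleaved versus uncleaved CCF4-AM substrate, read after 2 h substrate loading. Cells were HCT116 carrying the p53-responsive beta-lactamase reporter, dosed 16 h at 37C, 5% CO2; CellTiter-Glo measured in parallel.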
# [5] = TOX21_p53_BLA_p2_viability: Viability Assessment in the Tox21 HCT-116 p53 Agonism Beta-lactamase Assay, Phase 2 (AID 2283591);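 note: compound exposure lasted 16 h at 37 °C; actives lower the ATP signal meaning cytotoxicity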
# Procedure, shortened: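 Cytotoxicity readout: CellTiter-Glo ATP luminescence, 30 min at room temperature, after the beta-lactamase read. Cells were HCT116 exposed 16 h at 37C to compounds pin-transferred at 217-fold dilution from DMSO stocks.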
# [6] = biological target: Cellular tumor antigen p53 (Homo sapiens) (UniProt P04637); assay: TOX21_p53_BLA_p3_ratio: Tox21 HCT-116 p53 Agonism Beta-lactamase Assay, Ratio, Phase 3 (AID 2283596)
# Procedure, shortened: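 HCT116 p53-bla cells (4000/well) given compound in DMSO (217-fold dilution) after 5 h, incubated 16 h at 37C. CCF4-AM substrate 2 h at room temperature; 460/530 nm emission ratio, gain fitted against DMSO.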
# [7] = biological target: Cellular tumor antigen p53 (Homo sapiens) (UniProt P04637); assay: TOX21_p53_BLA_p5_ratio: Tox21 HCT-116 p53 Agonism Beta-lactamase Assay, Ratio, Phase 5 (AID 2283599)
# Procedure, shortened: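 Beta-lactamase reporter ratio (blue 460 nm over green 530 nm, 405 nm excitation) after 2 h CCF4-AM loading, in HCT-116 cells exposed 16 h at 37 C to compounds pinned at 217-fold dilution. Increases relative to DMSO baseline scored.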
# [8] = TOX21_p53_BLA_p5_viability: Viability Assessment in the Tox21 HCT-116 p53 Agonism Beta-lactamase Assay, Phase 5 (AID 2283600)
# Procedure, shortened: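 HCT-116 p53 beta-lactamase reporter cells, 4000/well, were exposed to compound (pin transfer, 217-fold dilution) for 16 hours at 37C. Cellular ATP was read by CellTiter-Glo luminescence after 30 min at room temperature.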
# [9] = biological target: Cellular tumor antigen p53 (Homo sapiens) (UniProt P04637); assay: TOX21_p53_BLA_p2_ratio: Tox21 HCT-116 p53 Agonism Beta-lactamase Assay, Ratio, Phase 2 (AID 2283592)
# Procedure, shortened: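 HCT-116 cells with p53-responsive beta-lactamase reporter, 4000 cells/well, preincubated 5 h, then compound in DMSO (217-fold dilution) for 16 h at 37C. CCF4-AM substrate 2 h at room temperature; 460/530 nm emission ratio fitted upward versus DMSO.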
# [10] = biological target: Retinoic acid receptor RXR-alpha (Homo sapiens) (UniProt P19793); assay: OT_NURR1_NURR1RXRa_1440: Odyssey Thera (OT) 24-hour HEK293T Protein Complementation Assay for Nurr1/retinoid X receptor (RXR) (AID 2283386)
# Procedure, shortened: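 HEK293T protein-fragment complementation of Nurr1 and RXRα fused to reporter fragments; compounds 24 h. Fluorescence gain from reconstituted reporter fitted versus DMSO.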
# [11] = ATG_XTT_Cytotoxicity: Cytotoxicity Assessment in the Attagene TRANS-FACTORIAL HepG2 Assay (AID 2283584);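 for AC50: XTT signal for cell number as viability in transfected HepG2 cells; cells exposed to compound for 24 h before reading; active means loss of viability signal versus DMSO baseline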
# Procedure, shortened: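 HepG2 cells transiently transfected with GAL4-UAS multiple reporter units, dosed 24 h; cytotoxicity read by XTT as loss of signal versus DMSO baseline.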
# [12] = biological target: Peroxisome proliferator-activated receptor gamma (Homo sapiens) (UniProt P37231); assay: OT_PPARg_PPARgSRC1_0480: Odyssey Thera (OT) 8-hour Protein-Complementation Assay for Peroxisome Proliferator-activated Receptor Gamma / SRC-1 Co-activator (AID 2283387);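 note: nuclear to cytoplasmic split Venus YFP fluorescence ratio reporting PPARg SRC-1 interaction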
# Procedure, shortened: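 Protein-fragment complementation of split Venus YFP reports PPARg/SRC-1 interaction in HEK293T (transfected 48 h before treatment), exposed 8 h. Readout: N/C fluorescence ratio at 488 nm from imaging, Draq5 for segmentation, positive fit relative to DMSO.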
structure (smiles),measurement,setting,value
CCC12COCN1COC2,outcome,[1],inactive
same,AC50,[2],inconclusive: 46.1 µM
same,outcome,[2],inactive
same,AC50,[3],inconclusive: 46.1 µM
same,outcome,[3],inactive
same,outcome,[4],inactive
C1CCC(NC2CCCCC2)CC1,AC50,[1],inconclusive: 50 µM
same,AC50,[5],inconclusive: 46.1 µM and inconclusive: 23 µM
same,outcome,[5],inactive
same,AC50,[6],inconclusive: 46.1 µM
same,AC50,[3],inconclusive: 46.1 µM and inconclusive: 40.9 µM
same,AC50,[7],inconclusive: 46.1 µM
same,AC50,[8],inconclusive: 46.1 µM and inconclusive: 23 µM
same,AC50,[4],inconclusive: 47.5 µM
Cc1cc(C)nc(Nc2ccccc2)n1,AC50,[1],inconclusive: 50 µM
same,AC50,[2],inconclusive: 9.14 µM
same,outcome,[6],inactive
same,outcome,[3],inactive
same,AC50,[4],inconclusive: 46.1 µM
CC1(C)C(C=C(Cl)Cl)C1C(=O)OC(C#N)c1ccc(F)c(Oc2ccccc2)c1 (stereo not given),AC50,[1],inconclusive: 50 µM
same,outcome,[5],inactive
same,outcome,[9],inactive
same,outcome,[2],inactive
same,AC50,[6],inconclusive: 46.1 µM
same,outcome,[7],inactive
same,outcome,[8],inactive
CCCSP(=S)(OCC)Oc1ccc(SC)cc1 (stereo not given),AC50,[1],inconclusive: 0.03 µM
same,AC50,[5],inconclusive: 17.7 µM
same,AC50,[9],inconclusive: 46.1 µM
same,AC50,[2],inconclusive: 0.556 µM
same,AC50,[6],inconclusive: 46.1 µM
same,outcome,[3],inactive
same,AC50,[8],inconclusive: 0.979 µM
C[N+]1(C)CCCCC1,AC50,[10],inconclusive: 50 µM
same,outcome,[10],inactive
same,AC50,[5],inconclusive: 45.6 µM
same,outcome,[9],inactive
same,AC50,[2],inconclusive: 45.6 µM
same,AC50,[3],inconclusive: 2.18 µM
same,outcome,[7],inactive
same,AC50,[8],inconclusive: 45.6 µM
COP(=S)(OC)Oc1ccc(SC)c(C)c1,AC50,[10],inconclusive: 50 µM
same,AC50,[5],inconclusive: 0.0237 µM
same,outcome,[5],inactive
same,AC50,[9],inconclusive: 23 µM
same,AC50,[2],inconclusive: 23 µM
same,AC50,[3],inconclusive: 45.7 µM
same,AC50,[8],inconclusive: 46.1 µM and inconclusive: 23 µM
same,AC50,[4],inconclusive: 45.7 µM and inconclusive: 23 µM
CN=C=S,outcome,[1],inactive
same,AC50,[5],inconclusive: 46.4 µM
same,outcome,[9],inactive
same,AC50,[2],inconclusive: 78.8 µM and inconclusive: 79.4 µM
same,AC50,[6],inconclusive: 78.8 µM
same,outcome,[6],inactive
same,AC50,[3],inconclusive: 78.8 µM
same,outcome,[7],inactive
same,AC50,[8],inconclusive: 46.4 µM
same,AC50,[4],inconclusive: 46.4 µM
CC1=C2C[C@H]3[C@@H](CC=C4C[C@@H](O)CC[C@@]43C)[C@@H]2CC[C@]12O[C@@H]1C[C@H](C)CN[C@H]1[C@H]2C,outcome,[1],inactive
same,outcome,[5],inactive
same,AC50,[9],inconclusive: 23 µM
same,outcome,[2],inactive
same,AC50,[3],inconclusive: 41.7 µM
OCCCCO,outcome,[10],inactive
same,AC50,[11],inconclusive: 100 µM
same,AC50,[5],inconclusive: 46.3 µM
same,AC50,[2],inconclusive: 46.1 µM and inconclusive: 46.3 µM
CC(C)(C)C(O)C(Oc1ccc(Cl)cc1)n1cncn1 (stereo not given),AC50,[1],inconclusive: 50 µM and inconclusive: 13.8 µM
same,outcome,[9],inactive
same,outcome,[4],inactive
O=C(O)COc1ccc(Cl)cc1,AC50,[10],inconclusive: 50 µM
same,outcome,[11],inactive
same,AC50,[9],inconclusive: 83.1 µM
same,outcome,[2],inactive
same,AC50,[8],inconclusive: 46.1 µM
same,AC50,[4],inconclusive: 46.1 µM
Brc1ccc(Oc2ccccc2)cc1,AC50,[10],inconclusive: 50 µM
same,AC50,[11],inconclusive: 0.0399 µM
same,AC50,[9],inconclusive: 46.1 µM
same,AC50,[2],inconclusive: 88.8 µM
same,AC50,[3],inconclusive: 46.1 µM and inconclusive: 47 µM
same,outcome,[7],inactive
same,outcome,[4],inactive
CCCCOCCOP(=O)(OCCOCCCC)OCCOCCCC,outcome,[1],inactive
same,AC50,[2],inconclusive: 46.1 µM
same,AC50,[6],inconclusive: 31 µM and inconclusive: 68.6 µM
same,outcome,[3],inactive
same,AC50,[7],inconclusive: 46.1 µM
same,AC50,[4],inconclusive: 46.1 µM
Clc1nc(Cl)nc(Nc2ccccc2Cl)n1,AC50,[10],inconclusive: 50 µM
same,outcome,[12],inactive
same,AC50,[2],inconclusive: 46.1 µM
same,AC50,[6],inconclusive: 46.1 µM
same,outcome,[3],inactive
CCN(CC)c1nc(C)cc(OP(=S)(OC)OC)n1,AC50,[10],inconclusive: 16.7 µM
same,outcome,[12],inactive
same,outcome,[9],inactive
same,AC50,[2],inconclusive: 46.1 µM
same,AC50,[8],inconclusive: 46.1 µM
CCN(CCO)CCO,AC50,[1],inconclusive: 1.82 µM
same,AC50,[2],inconclusive: 2.49 µM
same,AC50,[3],inconclusive: 46.1 µM
same,AC50,[7],inconclusive: 46.1 µM
same,outcome,[4],inactive
O=C(O)CCCOc1ccc(Cl)cc1Cl,outcome,[1],inactive
same,outcome,[5],inactive
same,outcome,[2],inactive
same,outcome,[3],inactive
same,outcome,[4],inactive

# From PubChem BioAssay (EPA / NIEHS)
